The list shows a part of the results. Most values lie at the level of the controls, where differences are scatter.
These molecules were tested on ppGalNAc-T3 sensor (assay: T3 sensor activation Q score (MG/GFP ratio z-score vs DMSO controls) (SD units); higher = more sensor activation (inhibition of ppGalNAc-T3 glycosylation)). Conditions: HEK293 sensor cells; 10 µM; 6 h.
Description: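 Cells were treated with compound at 10 uM for 6 h, then MG/GFP ratio was read by flow cytometry (10,000 cells per well, duplicate wells). Q = (R - R_neg)/SD_neg relative to DMSO vehicle controls; the signal rises when the glycosyltransferase is inhibited.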

| Compound | T3 sensor activation Q score |
| --- | --- |
| CC(=O)c1ccc(NC(=O)C23CC4CC(CC(C4)C2)C3)cc1 | -0.88 |
| NC(=O)CSc1nc2ccccc2[nH]1 | -0.995 |
| O=[N+]([O-])C1=C(Nc2ccccc2)CS(=O)(=O)C1 | 0.24 |
| NC(=O)C1CCCN(Cc2ccc(Cl)cc2)C1 (stereo not given) | -0.12 |
| Cc1ccc(C(=O)Nc2ccc(C(=O)O)cc2)cc1C | -0.35 |
| CC(=O)N1CCN(c2ccc([N+](=O)[O-])cc2F)CC1 | 0.645 |
| O=C(O)CCCC[C@H]1SC[C@H]2NC(=O)N[C@H]21 | 0.945 |
| O=C(c1ccccc1F)n1nnc2ccccc21 | 0.925 |
| O=C(COc1ccccc1)N1c2ccccc2Sc2ccccc21 | -0.545 |
| COc1ccccc1N1CCN(C(=O)c2ccc(F)cc2)CC1 | -0.53 |
| COc1cc(CN2CCC(C)CC2)c([N+](=O)[O-])cc1OC | 1 |
| CC(=O)Nc1cc(O)cc(O)c1 | -0.86 |
| O=C(NC(Cc1ccc(O)cc1)C(=O)O)c1ccccc1 (stereo not given) | -0.005 |
| C=CCSc1nc(O)cc(=O)n1C | 0.43 |
| CC(C)CC1CC2C(O1)c1ccccc1OC2(C)C (stereo not given) | 0.29 |
| O=C(Nc1ccccc1)N1CCCC1 | -0.545 |
| COc1cccc(OC)c1C(=O)Nc1ccccc1C | 0.355 |
| O=C1C(=O)N(CCO)C(c2ccccc2)C1=C(O)c1ccccc1 (stereo not given) | -0.905 |
| Cc1cccc2oc(-c3cccc(NC(=O)c4ccccc4I)c3)nc12 | -0.48 |
| CC(C)Oc1ccc(C2CC(=O)NC2=O)cc1 (stereo not given) | 0.05 |

| Compound | T3 sensor activation Q score |
| --- | --- |
| O=C(CCCOc1ccc(Cl)cc1Cl)N1CCOCC1 | 0.515 |
| COc1ccc(OCc2nc3ccccc3[nH]2)cc1 | -0.885 |
| COc1ccc(CC(=O)N2CCOCC2)cc1 | 2.25 |
| Cc1c(Cl)cccc1NC(=O)c1ccco1 | 0.345 |
| CC(C(=O)NCC1(c2ccccc2)CCOCC1)N1CCCC1 (stereo not given) | 0.215 |
| Cc1ccsc1CN1CCN(c2ccc(F)cc2)CC1 | -0.105 |
| COc1cccc(OC)c1C(=O)Nc1cccc(Cl)c1 | -0.835 |
| CC(=O)Nc1cc2c(cc1C(=O)c1ccccc1Cl)OCCO2 | 0.5 |
| Cc1ccc(OCCCN2CCOCC2)c(C)c1 | 0.47 |
| O=S(=O)(c1ccc(Cl)cc1)N1CCOCC1 | 0.9 |
| Cc1cccc(N2CCN(Cc3ccco3)CC2)c1C | 0.07 |
| Cc1ccccc1NC1=CC(=O)CC(c2ccccc2)C1 (stereo not given) | -0.175 |
| O=C(O)CCCC(=O)Nc1ccc(Cl)cc1 | 0.81 |
| CC(C)N(C(=O)Nc1cccc(Cl)c1)C(C)C | -0.085 |
| COc1ccc(N2C(=O)C(O)=C(C(C)=O)C2c2ccc(OC)c(OC)c2)cc1 (stereo not given) | -0.475 |
| COc1cc2c(cc1OC)CN(Cc1c(F)cccc1Cl)CC2 | 0.5 |
| COc1ccc(CN2CCN(c3ccc([N+](=O)[O-])cc3)CC2)cc1O | 0.65 |
| CN(C)c1ccc(NC2=C([N+](=O)[O-])CS(=O)(=O)C2)cc1 | -0.45 |
| Cn1c(S(=O)(=O)Cc2ccc(Cl)cc2)nc2ccccc21 | -0.23 |
| O=[N+]([O-])c1ccccc1N1CCCNCC1 | 0.355 |

Random excerpt: two compounds from above.

| Compound | T3 sensor activation Q score |
| --- | --- |
| COc1ccc(N2C(=O)C(O)=C(C(C)=O)C2c2ccc(OC)c(OC)c2)cc1 (stereo not given) | -0.475 |
| COc1ccc(CC(=O)N2CCOCC2)cc1 | 2.25 |
